According to PubChem BioAssay AID504444 (National Center for Advancing Translational Sciences (NCATS), 2011):
Out of some 360,000 compounds screened, about 7,500 (2.1%) were called active. The inconclusive results got no clear call from the source; some entries with a clear call stand among them for comparison. The call rests on the fitted dose curve; in most records, active means well fitted inhibition curve with a large enough effect; inconclusive means small, poorly fitted or top-dose-only effect, or effect the other way; inactive means flat fitted curve, though single readings scatter. A potency beside an inconclusive call is a rough fit, not a confirmed value.

assay: Nrf2 qHTS screen for inhibitors; settings: A549 ARE-Fluc reporter, luciferase luminescence, 18-24 h; series mostly up to 46 µM; further: nearly all actives have a fitted effect of over 60% in size
Outline: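 A549 ARE_Fluc cells (5000/well, 5% FBS OPTI-MEM) pre-incubated 2 h, then treated with compounds 18-24 h at 37C/5% CO2 in concentration-response. CellTiter-Fluor viability read first; BugLite luciferase luminescence after 15 min at room temperature gives Nrf2 activity.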
Potency means the concentration at half of the fitted maximal effect.

SMILES | Potency
Fc1ccc(/C=C/c2nnc(-c3cccs3)o2)cc1 | inconclusive: 0.058 µM [activator, full curve, poor fit]
O=S(=O)(Nc1ccc(S(=O)(=O)Nc2cccc3ccccc23)cc1)c1ccccc1 | inconclusive: 23.1 µM [falling, single point]
COC(=O)[C@]1(C)CCC[C@@]2(C)C3CC[C@]4(OC(C)=O)C[C@@]3(CCC21)CC4=O (some centres not stated) | inconclusive: 10.3 µM [falling, partial curve, poor fit]
Cc1ccc(S(=O)(=O)C(c2ccccc2)c2c(C)noc2C)cc1 (configuration not stated) | inconclusive: 2.31 µM [activator, partial curve]
CC(=O)c1c(-c2ccccc2)c2ccccc2[nH]c1=O | inconclusive: 4.11 µM [falling, partial curve, poor fit]
Cc1cccc(-c2nc(CSCC(=O)NCc3cccs3)c(C)o2)c1 | inconclusive: 0.0651 µM [falling, full curve, poor fit]
CCCc1ccc(Oc2cn[nH]c2-c2ccc(O)cc2O)cc1 | inconclusive: 9.2 µM [falling, partial curve, poor fit]
O=C(CNS(=O)(=O)c1ccc2c(c1)OCCCO2)N1CCN(c2ccc(F)cc2)CC1 | inconclusive: 13 µM [falling, partial curve]
CC1CN(S(=O)(=O)c2ccc(C(=O)Nc3sccc3C(N)=O)cc2)CC(C)O1 (configuration not stated) | inconclusive: 13 µM [falling, partial curve]
NC(=O)CSC1=Nc2ccccc2C2=NC(c3ccccc3)C(=O)N12 (configuration not stated) | inactive
Cc1cccc2nc(CNC(=O)C3CCC(=O)N(Cc4ccccc4F)C3)cn12 (configuration not stated) | inactive
COc1ccc(C(=O)NCCn2cc(SCC(=O)Nc3ccc4c(c3)OCCO4)c3ccccc32)cc1OC | inconclusive: 4.61 µM [falling, partial curve, poor fit]
CCc1nn2c(=O)cc(COC(=O)C(CC)c3ccccc3)nc2s1 (configuration not stated) | inconclusive: 29.1 µM [falling, single point]
CCOC(=O)c1c(Oc2ccc(C(C)=O)cc2)nnc(-c2ccccc2)c1-c1ccccc1 | inconclusive: 29.1 µM [falling, single point]
COc1cccc(-c2cc(C(F)(F)F)nc(NCc3ccco3)n2)c1 | inconclusive: 29.1 µM [falling, single point]
Cc1cccc(C(=O)OCC(=O)c2c(N)n(CC(C)C)c(=O)n(C)c2=O)c1[N+](=O)[O-] | inconclusive: 29.1 µM [falling, single point]
O=C(N/C(=C/c1ccc(Br)cc1)C(=O)N1CCCC1=O)c1ccco1 | inconclusive: 29.1 µM [falling, single point]
Cc1c(C(=O)NC(C)c2ccccc2)sc2nc3n(c(=O)c12)CCCC3 (configuration not stated) | inconclusive: 23.1 µM [falling, single point]
COc1cc(-c2noc(CCCC(=O)NC3CCCCC3)n2)cc(OC)c1OC | inactive
COCCNC(=O)c1ccc2c(c1)N=C(C)c1cc(C)ccc1S2 | inconclusive: 1.84 µM [activator, full curve]
CCOC(=O)C1=C(CN2CCN(C(=O)c3ccco3)CC2)NC(=O)NC1c1ccc(F)cc1 (configuration not stated) | inconclusive: 14.6 µM [falling, partial curve, poor fit]
CCC(C)NC(=O)NCc1ccccc1F (configuration not stated) | inactive
CCOC(=O)COc1ccc(C)cc1C(=O)c1ccn2nc(-c3ccc(F)cc3)cc2n1 | inactive

SMILES | Potency
Cc1cc(C)c(CN2CCN(C(=O)Cn3cnc4c(OCc5ccccc5)ncnc43)CC2)c(C)c1 | active: 3.66 µM
Cc1nn2cc(-c3ccccc3)nc2s1 | inconclusive: 0.731 µM [activator, full curve]
CC(Sc1ncnc2sc(-c3ccccc3)cc12)C(=O)N1CCNC1=O (configuration not stated) | inconclusive: 14.6 µM [falling, single point]
c1nc(NCc2ccc3c(c2)OCO3)c2cc(-c3ccc4c(c3)OCCO4)ccc2n1 | active: 23.1 µM
COc1ccc2cc(C#N)c(NC(C)C)nc2c1 | inconclusive: 23.1 µM [activator, partial curve]
CC1(C)Cc2c(sc(NC(=O)c3ccco3)c2C(=O)O)CO1 | inconclusive: 29.1 µM [falling, single point]
COc1ccc(S(=O)(=O)NC2CCN(C#N)CC2)cc1 | inactive
Cc1ccc(/C=C2\SC(=S)N(CCCC(=O)NNC(=O)c3ccccc3O)C2=O)cc1 | active: 10.3 µM
Cc1cccc(C)c1NC(=O)COC(=O)COc1ccc2c(C)cc(=O)oc2c1 | inactive
COc1ccc(C(=O)Nc2nc(-c3ccc(S(=O)(=O)N4CCOCC4)cc3)cs2)cc1 | inconclusive: 23.1 µM [falling, single point]
Cc1ccc(NC(=O)CSCC(=O)Nc2nnc(C)s2)cc1 | inactive
Cc1cccc(/C=N/NC(=O)c2c(-c3ccccc3)noc2C)c1O | inconclusive: 29.1 µM [falling, single point]
Nc1nc(COc2ccccc2C=O)nc(Nc2ccccc2)n1 | inactive
Cc1ccc(OCC(=O)Nc2ccc3oc(=O)ccc3c2)c(C)c1 | inconclusive: 29.1 µM [falling, single point]
O=C(NC(=S)N1CCc2ccccc21)c1ccccc1Cl | inconclusive: 23.1 µM [activator, single point]
Cc1cccn2c(=O)c(/C=C(\C#N)C(=O)NCc3ccco3)c(N3CCCCCC3)nc12 | inconclusive: 23.1 µM [falling, single point]
CCCC1=Nc2cc(C(=O)N3CCC(C)CC3)ccc2Sc2ccc(C)cc21 | inconclusive: 3.26 µM [activator, partial curve, poor fit]
O=C(Nc1cccc(Cl)c1)c1ccc(F)c(S(=O)(=O)N2CCN(c3ccccn3)CC2)c1 | active: 20.6 µM
CC1=C(C(=O)OC2CCCCCC2)C(c2cccc(Cl)c2)CC(=O)N1 (configuration not stated) | active: 16.4 µM
O=c1c2ccccc2nc(COc2ccccc2)n1/N=C/c1ccco1 | inconclusive: 0.58 µM [activator, full curve, poor fit]
CCOC(=O)c1c(NC(=O)CN2CCN(c3cccc(Cl)c3)CC2)sc(C)c1C | inactive
Cc1ccc2c(=O)c(C(=O)c3cccc(Cl)c3)cn(CC(=O)Nc3ccccc3C(F)(F)F)c2n1 | inconclusive: 23.1 µM [activator, single point]
COc1ccc(/C(N)=N/OC(=O)Cc2ccccc2)cc1 | inconclusive: 18.4 µM [activator, single point]

Three entries already listed, arranged by count of non-hydrogen atoms, largest number first:
SMILES | Potency
c1nc(NCc2ccc3c(c2)OCO3)c2cc(-c3ccc4c(c3)OCCO4)ccc2n1 | active: 23.1 µM
CCCC1=Nc2cc(C(=O)N3CCC(C)CC3)ccc2Sc2ccc(C)cc21 | inconclusive: 3.26 µM [activator, partial curve, poor fit]
O=c1c2ccccc2nc(COc2ccccc2)n1/N=C/c1ccco1 | inconclusive: 0.58 µM [activator, full curve, poor fit]

Next results follow:

SMILES | Potency
O=C(N/C(=C\c1ccc(Cl)cc1)C(=O)N1CCOCC1)c1ccco1 | inconclusive: 25.9 µM [activator, single point]
COC(=O)c1nn(-c2ccccc2)c(=O)cc1O | inactive
CCOc1ccc(-n2nc3ccc(NC(=O)c4ccc(-c5cccc(Cl)c5)o4)cc3n2)cc1 | active: 14.6 µM
CCN(CC)S(=O)(=O)c1cccc(-c2csc(C)n2)c1 | inconclusive: 29.1 µM [activator, single point]
CCOC(=O)N1CCN(c2cc(=O)n(-c3ccc(C)cc3)c(=O)[nH]2)CC1 | inactive
O=Cc1ccccc1OCc1ccc2c(c1)OCO2 | inconclusive: 25.9 µM [activator, single point]
Cc1oc2c(C)c3oc(=O)c(CCC(=O)O)c(C)c3cc2c1-c1ccccc1 | inconclusive: 10.3 µM [falling, partial curve, poor fit]
O=C(Cc1ccc(F)cc1)NCCc1ccc(F)cc1 | inactive
O=C1C(F)=CC(COC(c2ccccc2)(c2ccccc2)c2ccccc2)OC1n1cc(F)c(=O)[nH]c1=O (configuration not stated) | inconclusive: 20.6 µM [falling, single point]
COc1cc(C(=O)N/N=C(\C)c2ccc(NC(=O)Cc3ccccc3)cc2)ccc1O | inconclusive: 16.4 µM [activator, partial curve, poor fit]
COc1cc2c(cc1OC)CN(C(=O)C1CCCN(C(=O)c3ccc(Cl)cc3)C1)CC2 (configuration not stated) | inconclusive: 25.9 µM [falling, single point]
Cc1nc2cc(-c3ccccc3)sc2c(=O)n1N | active: 4.11 µM
Cc1cccc(C(=O)Nc2ccc(C(=O)N/N=C/c3cccc(C)n3)cc2)c1 | inconclusive: 0.092 µM [falling, full curve, poor fit]
Cc1ccc(NS(=O)(=O)c2ccc(Cl)cc2)cc1C | inactive
O=c1cc(O)c2sc(Nc3ccc(F)c(Cl)c3)nc2[nH]1 | inconclusive: 6.51 µM [activator, partial curve, poor fit]
CCOc1ccc(OCCNC2CCCC2)cc1 | inconclusive: 2.91 µM [activator, full curve, poor fit]
CCOC(=O)c1[nH]c2cc3c(cc2c1NC(=O)CN1CCc2ccccc2C1)OCO3 | inconclusive: 20.6 µM [falling, single point]
CCc1ccc(-c2cc(C)no2)cc1S(=O)(=O)N1CCN(c2ccccc2F)CC1 | inconclusive: 29.1 µM [falling, single point]
Cc1onc(-c2ccccc2)c1C(=O)Nc1ccc(S(=O)(=O)N2CCOCC2)cc1 | inconclusive: 0.13 µM [activator, full curve, poor fit]
O=c1c2ccccc2nc(-c2ccco2)n1Cc1ccccc1 | inconclusive: 2.31 µM [activator, partial curve]
O=S(=O)(c1cccc(C(F)(F)F)c1)N1CCC(c2cc(-c3cccc4ccccc34)n[nH]2)CC1 | inconclusive: 0.0116 µM [falling, full curve, poor fit]
